Test results published in US20090202520A1.
These are yes or no findings as the source states them, for the method shown. Some entries that bind do so weakly or less than the wild type. Blank lines part the entries; values can stand above or below the substance they belong to.

Protein sequences, listed by entry. Tags and fused reporters are not part of them. Lines headed by an entry give the natural chain unless they say otherwise; changes in a name come on top. Residues count along the entry.
UniProt P12314, residues 16-292: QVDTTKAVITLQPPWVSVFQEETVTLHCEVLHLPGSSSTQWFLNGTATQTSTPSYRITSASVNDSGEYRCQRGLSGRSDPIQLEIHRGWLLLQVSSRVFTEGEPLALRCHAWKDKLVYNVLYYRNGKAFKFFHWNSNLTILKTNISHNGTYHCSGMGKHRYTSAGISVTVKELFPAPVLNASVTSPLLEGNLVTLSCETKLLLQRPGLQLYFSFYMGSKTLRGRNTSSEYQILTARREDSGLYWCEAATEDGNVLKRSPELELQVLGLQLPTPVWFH
UniProt O75015, residues 17-200: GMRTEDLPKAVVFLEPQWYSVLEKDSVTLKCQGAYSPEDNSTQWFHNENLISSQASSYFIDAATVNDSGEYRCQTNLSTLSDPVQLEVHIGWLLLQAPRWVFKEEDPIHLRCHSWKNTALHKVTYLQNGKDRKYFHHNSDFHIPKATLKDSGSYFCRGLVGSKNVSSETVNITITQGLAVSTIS
UniProt P02743: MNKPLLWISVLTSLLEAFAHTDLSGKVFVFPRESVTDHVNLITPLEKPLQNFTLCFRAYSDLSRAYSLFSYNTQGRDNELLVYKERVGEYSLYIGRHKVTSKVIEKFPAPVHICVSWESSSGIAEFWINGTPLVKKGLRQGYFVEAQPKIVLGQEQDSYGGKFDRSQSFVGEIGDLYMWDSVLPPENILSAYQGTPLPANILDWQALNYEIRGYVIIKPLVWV
UniProt P12318: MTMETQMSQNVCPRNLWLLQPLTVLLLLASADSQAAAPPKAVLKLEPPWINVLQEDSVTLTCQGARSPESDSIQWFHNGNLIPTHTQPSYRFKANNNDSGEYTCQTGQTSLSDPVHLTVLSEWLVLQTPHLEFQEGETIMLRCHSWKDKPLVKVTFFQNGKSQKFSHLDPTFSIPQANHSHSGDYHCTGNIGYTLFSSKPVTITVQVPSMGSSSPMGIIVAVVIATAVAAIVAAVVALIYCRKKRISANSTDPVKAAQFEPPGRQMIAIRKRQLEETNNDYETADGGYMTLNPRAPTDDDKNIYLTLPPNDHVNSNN

How the values were obtained:
[1] = target: T1, C-reactive protein (CRP) (human) (UniProt P02741); test: SPR, rank order of affinities
T1 sequence (looked up): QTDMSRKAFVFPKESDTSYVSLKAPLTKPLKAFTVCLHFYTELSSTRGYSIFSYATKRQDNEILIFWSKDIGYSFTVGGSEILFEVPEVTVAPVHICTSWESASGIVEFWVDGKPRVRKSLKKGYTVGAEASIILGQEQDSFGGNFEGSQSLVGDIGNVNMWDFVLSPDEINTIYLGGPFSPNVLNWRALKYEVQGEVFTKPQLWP

[2] = target: T1, C-reactive protein (CRP) (human); test: SPR (Biacore X100), CRP captured on PC-KLH on CM5 chip
[3] = target: soluble recombinant FcγRI (sFcγRI) (UniProt P12314); test: SPR (Biacore X100), SAP on CM5 chip
[4] = target: soluble recombinant FcγRI (sFcγRI) (UniProt P12314); test: SPR, comparison of SAP and CRP affinities
[5] = target: soluble recombinant FcγRIIIB (sFcγRIIIB) (UniProt O75015); test: SPR (Biacore X100), SAP on CM5 chip
[6] = target: soluble recombinant FcγRIIIB (sFcγRIIIB) (UniProt O75015); test: SPR sensorgram, five receptor concentrations
[7] = target: serum amyloid P (SAP) (human) (UniProt P02743); test: SPR, rank order of affinities
[8] = target: T1, C-reactive protein (CRP) (human); test: SPR steady-state plot of Req against FcγRI concentration; CRP captured via PC-KLH on CM5 chip
[9] = target: T1, C-reactive protein (CRP) (human); test: SPR (Biacore X100), multi-cycle kinetics; CRP captured via PC-KLH on CM5 chip and briefly immobilized, sFcγRI flowed for 120 sec
[10] = target: T1, C-reactive protein (CRP) (human); test: SPR steady-state plot of Req against FcγRIIIB concentration; CRP captured via PC-KLH on CM5 chip
[11] = target: T1, C-reactive protein (CRP) (human); test: SPR (Biacore X100), multi-cycle kinetics; CRP captured via PC-KLH on CM5 chip and briefly immobilized, sFcγRIIIB flowed for 90 sec

Substance: soluble recombinant FcγRIIA (H131 variant) (from UniProt P12318 36-217) (receptor)
- binding [1]: binds
- binding [2]: binds

Substance: serum amyloid P (SAP) (from UniProt P02743 20-223) (ligand)
- binding [3]: binds
- binding [4]: binds

Substance: soluble recombinant FcγRIIA (R131 variant) (from UniProt P12318 36-217) (receptor)
- binding [1]: binds
- binding [2]: binds

Substance: soluble recombinant FcγRIIIB (sFcγRIIIB) (from UniProt O75015 17-200) (receptor)
- binding [1]: binds
- binding [2]: binds
- binding [10]: binds
- binding [11]: binds

Other lines, results leading:

- binding [5]: binds
- binding [6]: binds
Substance: serum amyloid P (SAP) (from UniProt P02743 20-223) (ligand; other documents disagree on this pair)

- binding [1]: binds
- binding [7]: binds
- binding [2]: binds
- binding [8]: binds
- binding [9]: binds
Substance: soluble recombinant FcγRI (sFcγRI) (from UniProt P12314 16-292) (receptor)
